# Measurements as given in publication PMC12149670.
# By UniProt entry, the sequences of proteins in these tests, tags left out.
# UniProt P05627: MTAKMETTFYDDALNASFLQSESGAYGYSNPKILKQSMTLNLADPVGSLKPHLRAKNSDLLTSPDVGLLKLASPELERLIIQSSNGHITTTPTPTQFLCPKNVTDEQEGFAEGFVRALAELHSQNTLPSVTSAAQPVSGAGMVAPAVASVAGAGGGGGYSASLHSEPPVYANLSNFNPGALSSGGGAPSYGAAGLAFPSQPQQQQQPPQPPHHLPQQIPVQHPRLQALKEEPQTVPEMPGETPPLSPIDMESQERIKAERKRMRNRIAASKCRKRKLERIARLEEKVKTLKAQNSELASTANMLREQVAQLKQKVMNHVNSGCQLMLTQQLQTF
# UniProt Q04207: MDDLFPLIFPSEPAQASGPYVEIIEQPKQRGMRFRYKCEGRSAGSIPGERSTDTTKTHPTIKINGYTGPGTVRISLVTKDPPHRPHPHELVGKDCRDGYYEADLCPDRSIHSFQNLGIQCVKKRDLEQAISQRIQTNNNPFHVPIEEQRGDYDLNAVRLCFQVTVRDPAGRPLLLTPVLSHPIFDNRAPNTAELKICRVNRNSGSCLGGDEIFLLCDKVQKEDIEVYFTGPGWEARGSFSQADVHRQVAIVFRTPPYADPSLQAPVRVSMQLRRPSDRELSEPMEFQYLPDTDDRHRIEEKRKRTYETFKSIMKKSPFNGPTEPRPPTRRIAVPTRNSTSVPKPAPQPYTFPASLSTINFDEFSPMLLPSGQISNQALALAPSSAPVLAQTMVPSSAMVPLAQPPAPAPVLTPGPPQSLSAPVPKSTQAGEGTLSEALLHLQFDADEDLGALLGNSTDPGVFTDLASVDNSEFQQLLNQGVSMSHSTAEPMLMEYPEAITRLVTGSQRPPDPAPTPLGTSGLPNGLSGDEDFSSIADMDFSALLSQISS
# These are yes or no findings as the source states them, for the method shown. In cells and extracts the contact can be indirect. Some entries that bind do so weakly or less than the wild type. Where a sequence is shown, tags or fusion partners need not be part of it.
# Legend:
# [1] = target: CTBP2-Halo-tag (CTBP2 wt-Halo-tag) (human) (UniProt P56545); experiment: FRET or BRET; NanoBRET in living LPS-treated (100 ng/ml, 6 h) J774.1 Ctbp dKO cells: Nano-luciferase fusion as donor, CTBP2-Halo-tag with Halo-ligand 618 as acceptor; milliBRET units, wells without ligand subtracted
# [2] = target: CTBP2 mono-Halo-tag (human) (UniProt P56545); experiment: as above
binding [1],binding [2],Molecule
binds,–,Nano-luciferase–labeled JUN (from UniProt P05627 1-334)
binds,–,Nano-luciferase–labeled RELA (from UniProt Q04207 1-549)
binds,binds,"Nano-luciferase–labeled JUNB (protein, UniProt P09450 1-344) MCTKMEQPFYHDDSYAAAGYGRSPGSLSLHDYKLLKPTLALNLADPYRGLKGPGARGPGPEGSGAGSYFSGQGSDTGASLKLASTELERLIVPNSNGVITTTPTPPGQYFYPRGGGSGGGTGGGVTEEQEGFADGFVKALDDLHKMNHVTPPNVSLGASGGPQAGPGGVYAGPEPPPVYTNLSSYSPASAPSGGSGTAVGTGSSYPTATISYLPHAPPFAGGHPAQLGLSRGASAFKEEPQTVPEARSRDATPPVSPINMEDQERIKVERKRLRNRLAATKCRKRKLERIARLEDKVKTLKAENAGLSSAAGLLREQVAQLKQKVMTHVSNGCQLLLGVKGHAF"
